Data taken from the supplement of paper PMC11060735.
“And” between values parts separate entries of the source, which are not always exact repeats. Equal entries are not always repeated. Structures can show the parent of a compound that is named as a salt. ± gives the standard deviation of the averaged measurements. Whole data set: some 1,800 compounds, median “GFP- (p16Ink4a-) cell count relative to negative-control wells” near 0.99, cut for the lowest 2% near 0.5. This is one part of the list.

tested on: mouse p16Ink4a+/- lung fibroblasts (INKBRITE, bleomycin-injured); experiment: GFP- (p16Ink4a-) cell count relative to negative-control wells (fold of vehicle); higher = more p16Ink4a- cells surviving; conditions: 1 µM; 3 days

Question: Which GFP- does the source give for `COc1cc2nc(N3CCN(C(=O)c4ccco4)CC3)nc(N)c2cc1OC` [Prazosin] here?
Answer: 1.13

Question: Which GFP- does the source give for `COc1cc(CCc2cc(NC(=O)c3ccc(N4C[C@@H](C)N[C@@H](C)C4)cc3)[nH]n2)cc(OC)c1` here?
Answer: 1.04

Question: Which GFP- does the source give for `CNC(=O)c1cc(Oc2ccc(NC(=O)Nc3ccc(Cl)c(C(F)(F)F)c3)cc2)ccn1` [Sorafenib] here?
Answer: 1.12 and 1.1

Question: For `COc1c(O)cc2c(c1O)[C@@H]1O[C@H](CO)[C@@H](O)[C@H](O)[C@H]1OC2=O` [Bergenin], which GFP- is on record?
Answer: 0.998

Question: For `CCCCOc1ccc(C(=O)Nc2ccc(F)cc2F)cc1`, which GFP- is on record?
Answer: 0.879

Question: How did the GFP- turn out when `C[C@]12C=CC(=O)N[C@@H]1CC[C@@H]1[C@@H]2CC[C@]2(C)[C@@H](C(=O)Nc3cc(C(F)(F)F)ccc3C(F)(F)F)CC[C@@H]12` [Dutasteride] was run?
Answer: 0.977

Question: With `CCOC(=O)c1c(CSc2ccccc2)n(C)c2cc(Br)c(O)c(CN(C)C)c12` [Arbidol HCl] as the compound, how does the GFP- read?
Answer: 0.933

Question: Which GFP- does the source give for `CC(C)CN(C[C@@H](O)[C@H](Cc1ccccc1)NC(=O)O[C@H]1CCOC1)S(=O)(=O)c1ccc(N)cc1` [Amprenavir] here?
Answer: 1.01

Question: Which GFP- does the source give for `COCCO/C(O)=C1\C(C)=NC(C)=C(C(=O)OC/C=C/c2ccccc2)C1c1cccc([N+](=O)[O-])c1` (stereo not given) [Cilnidipine] here?
Answer: 0.955

Question: With `N#C/C(=C\c1ccc(O)c(O)c1)C(=O)NCc1ccccc1` [Tyrphostin Ag 490] as the compound, how does the GFP- read?
Answer: 1 ± 0.042

Question: `OC[C@H]1O[C@@H](c2ccc(Cl)c(Cc3ccc(O[C@H]4CCOC4)cc3)c2)[C@H](O)[C@@H](O)[C@@H]1O` [Empagliflozin] was tested. Which GFP- did it give?
Answer: 0.943

Question: How did the GFP- turn out when `Oc1ccc(/C=C/c2cc(O)cc(O)c2)cc1` [Resveratrol] was run?
Answer: 1.04 ± 0.1

Question: For `CNC(=O)c1ccc(N2C(=S)N(c3cnc(C#N)c(C(F)(F)F)c3)C(=O)C23CCC3)cc1F`, which GFP- is on record?
Answer: 0.891

Question: Which GFP- does the source give for `COc1cc2nc(N3CCN(C(=O)C4COc5ccccc5O4)CC3)nc(N)c2cc1OC` (stereo not given) [Doxazosin] here?
Answer: 0.969

Question: How did the GFP- turn out when `C[C@@H]1CN(CC(=O)Nc2ccc3c(c2)Cc2cccc(-c4cc(=O)cc(N5CCOCC5)o4)c2S3)C[C@H](C)O1` was run?
Answer: 0.898

Question: With `Nc1ccn([C@@H]2O[C@H](CO)[C@@H](O)C2(F)F)c(=O)n1` [Gemcitabine] as the compound, how does the GFP- read?
Answer: 0.724

Question: How did the GFP- turn out when `O=C(O)/C=C/c1ccc(O)c(O)c1` [Caffeic Acid] was run?
Answer: 0.903

Question: How did the GFP- turn out when `NC(=O)c1ncn([C@@H]2O[C@H](CO)[C@@H](O)[C@H]2O)c1N` [Acadesine] was run?
Answer: 1.12

Question: `CCCc1nc(C)c2c(O)nc(-c3cc(S(=O)(=O)N4CCN(CC)CC4)ccc3OCC)nn12` [Vardenafil] was tested. Which GFP- did it give?
Answer: 0.975

Question: Which GFP- does the source give for `Cc1ccc([C@@H]2O[C@H](CO)[C@@H](O)[C@H](O)[C@H]2O)cc1Cc1ccc(-c2ccc(F)cc2)s1` [Canagliflozin] here?
Answer: 1.06
